Some of the results follow.
Columns and labels:
Experiment in all cases: log2 fold change, soluble protein after heating vs DMSO (PISA); higher = thermal stabilisation; K562 lysate, 10 uM; active = over 0.2 and 3.5 SD of the protein, either way, in both replicates (recomputed)
erlotinib = compound: C#Cc1cccc(Nc2ncnc3cc(OCCOC)c(OCCOC)cc23)c1 [erlotinib]
In short: (§1)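 K562 pellets were dounce-homogenised in PBS pH 7.4 with 1 mM MgCl2, and the crude extract at 1 mg/mL protein was treated with 10 μM compound for 30 min. Aliquots were heated for 3 min across 48°C-58°C, pooled, and brought to 0.5% NP-40 at 4°C; soluble protein was the supernatant after 21,000xg for 90 min. Soluble protein was quantified by TMTpro 16plex LC-MS/MS with channel sums equalised, and reported as log2 fold change in thermal stability against DMSO controls, with values from duplicates.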

Amino acid sequences for entries named in this document (tags omitted). A change or cut given only in a name is not applied to a line headed by its entry.
UniProt Q96M86: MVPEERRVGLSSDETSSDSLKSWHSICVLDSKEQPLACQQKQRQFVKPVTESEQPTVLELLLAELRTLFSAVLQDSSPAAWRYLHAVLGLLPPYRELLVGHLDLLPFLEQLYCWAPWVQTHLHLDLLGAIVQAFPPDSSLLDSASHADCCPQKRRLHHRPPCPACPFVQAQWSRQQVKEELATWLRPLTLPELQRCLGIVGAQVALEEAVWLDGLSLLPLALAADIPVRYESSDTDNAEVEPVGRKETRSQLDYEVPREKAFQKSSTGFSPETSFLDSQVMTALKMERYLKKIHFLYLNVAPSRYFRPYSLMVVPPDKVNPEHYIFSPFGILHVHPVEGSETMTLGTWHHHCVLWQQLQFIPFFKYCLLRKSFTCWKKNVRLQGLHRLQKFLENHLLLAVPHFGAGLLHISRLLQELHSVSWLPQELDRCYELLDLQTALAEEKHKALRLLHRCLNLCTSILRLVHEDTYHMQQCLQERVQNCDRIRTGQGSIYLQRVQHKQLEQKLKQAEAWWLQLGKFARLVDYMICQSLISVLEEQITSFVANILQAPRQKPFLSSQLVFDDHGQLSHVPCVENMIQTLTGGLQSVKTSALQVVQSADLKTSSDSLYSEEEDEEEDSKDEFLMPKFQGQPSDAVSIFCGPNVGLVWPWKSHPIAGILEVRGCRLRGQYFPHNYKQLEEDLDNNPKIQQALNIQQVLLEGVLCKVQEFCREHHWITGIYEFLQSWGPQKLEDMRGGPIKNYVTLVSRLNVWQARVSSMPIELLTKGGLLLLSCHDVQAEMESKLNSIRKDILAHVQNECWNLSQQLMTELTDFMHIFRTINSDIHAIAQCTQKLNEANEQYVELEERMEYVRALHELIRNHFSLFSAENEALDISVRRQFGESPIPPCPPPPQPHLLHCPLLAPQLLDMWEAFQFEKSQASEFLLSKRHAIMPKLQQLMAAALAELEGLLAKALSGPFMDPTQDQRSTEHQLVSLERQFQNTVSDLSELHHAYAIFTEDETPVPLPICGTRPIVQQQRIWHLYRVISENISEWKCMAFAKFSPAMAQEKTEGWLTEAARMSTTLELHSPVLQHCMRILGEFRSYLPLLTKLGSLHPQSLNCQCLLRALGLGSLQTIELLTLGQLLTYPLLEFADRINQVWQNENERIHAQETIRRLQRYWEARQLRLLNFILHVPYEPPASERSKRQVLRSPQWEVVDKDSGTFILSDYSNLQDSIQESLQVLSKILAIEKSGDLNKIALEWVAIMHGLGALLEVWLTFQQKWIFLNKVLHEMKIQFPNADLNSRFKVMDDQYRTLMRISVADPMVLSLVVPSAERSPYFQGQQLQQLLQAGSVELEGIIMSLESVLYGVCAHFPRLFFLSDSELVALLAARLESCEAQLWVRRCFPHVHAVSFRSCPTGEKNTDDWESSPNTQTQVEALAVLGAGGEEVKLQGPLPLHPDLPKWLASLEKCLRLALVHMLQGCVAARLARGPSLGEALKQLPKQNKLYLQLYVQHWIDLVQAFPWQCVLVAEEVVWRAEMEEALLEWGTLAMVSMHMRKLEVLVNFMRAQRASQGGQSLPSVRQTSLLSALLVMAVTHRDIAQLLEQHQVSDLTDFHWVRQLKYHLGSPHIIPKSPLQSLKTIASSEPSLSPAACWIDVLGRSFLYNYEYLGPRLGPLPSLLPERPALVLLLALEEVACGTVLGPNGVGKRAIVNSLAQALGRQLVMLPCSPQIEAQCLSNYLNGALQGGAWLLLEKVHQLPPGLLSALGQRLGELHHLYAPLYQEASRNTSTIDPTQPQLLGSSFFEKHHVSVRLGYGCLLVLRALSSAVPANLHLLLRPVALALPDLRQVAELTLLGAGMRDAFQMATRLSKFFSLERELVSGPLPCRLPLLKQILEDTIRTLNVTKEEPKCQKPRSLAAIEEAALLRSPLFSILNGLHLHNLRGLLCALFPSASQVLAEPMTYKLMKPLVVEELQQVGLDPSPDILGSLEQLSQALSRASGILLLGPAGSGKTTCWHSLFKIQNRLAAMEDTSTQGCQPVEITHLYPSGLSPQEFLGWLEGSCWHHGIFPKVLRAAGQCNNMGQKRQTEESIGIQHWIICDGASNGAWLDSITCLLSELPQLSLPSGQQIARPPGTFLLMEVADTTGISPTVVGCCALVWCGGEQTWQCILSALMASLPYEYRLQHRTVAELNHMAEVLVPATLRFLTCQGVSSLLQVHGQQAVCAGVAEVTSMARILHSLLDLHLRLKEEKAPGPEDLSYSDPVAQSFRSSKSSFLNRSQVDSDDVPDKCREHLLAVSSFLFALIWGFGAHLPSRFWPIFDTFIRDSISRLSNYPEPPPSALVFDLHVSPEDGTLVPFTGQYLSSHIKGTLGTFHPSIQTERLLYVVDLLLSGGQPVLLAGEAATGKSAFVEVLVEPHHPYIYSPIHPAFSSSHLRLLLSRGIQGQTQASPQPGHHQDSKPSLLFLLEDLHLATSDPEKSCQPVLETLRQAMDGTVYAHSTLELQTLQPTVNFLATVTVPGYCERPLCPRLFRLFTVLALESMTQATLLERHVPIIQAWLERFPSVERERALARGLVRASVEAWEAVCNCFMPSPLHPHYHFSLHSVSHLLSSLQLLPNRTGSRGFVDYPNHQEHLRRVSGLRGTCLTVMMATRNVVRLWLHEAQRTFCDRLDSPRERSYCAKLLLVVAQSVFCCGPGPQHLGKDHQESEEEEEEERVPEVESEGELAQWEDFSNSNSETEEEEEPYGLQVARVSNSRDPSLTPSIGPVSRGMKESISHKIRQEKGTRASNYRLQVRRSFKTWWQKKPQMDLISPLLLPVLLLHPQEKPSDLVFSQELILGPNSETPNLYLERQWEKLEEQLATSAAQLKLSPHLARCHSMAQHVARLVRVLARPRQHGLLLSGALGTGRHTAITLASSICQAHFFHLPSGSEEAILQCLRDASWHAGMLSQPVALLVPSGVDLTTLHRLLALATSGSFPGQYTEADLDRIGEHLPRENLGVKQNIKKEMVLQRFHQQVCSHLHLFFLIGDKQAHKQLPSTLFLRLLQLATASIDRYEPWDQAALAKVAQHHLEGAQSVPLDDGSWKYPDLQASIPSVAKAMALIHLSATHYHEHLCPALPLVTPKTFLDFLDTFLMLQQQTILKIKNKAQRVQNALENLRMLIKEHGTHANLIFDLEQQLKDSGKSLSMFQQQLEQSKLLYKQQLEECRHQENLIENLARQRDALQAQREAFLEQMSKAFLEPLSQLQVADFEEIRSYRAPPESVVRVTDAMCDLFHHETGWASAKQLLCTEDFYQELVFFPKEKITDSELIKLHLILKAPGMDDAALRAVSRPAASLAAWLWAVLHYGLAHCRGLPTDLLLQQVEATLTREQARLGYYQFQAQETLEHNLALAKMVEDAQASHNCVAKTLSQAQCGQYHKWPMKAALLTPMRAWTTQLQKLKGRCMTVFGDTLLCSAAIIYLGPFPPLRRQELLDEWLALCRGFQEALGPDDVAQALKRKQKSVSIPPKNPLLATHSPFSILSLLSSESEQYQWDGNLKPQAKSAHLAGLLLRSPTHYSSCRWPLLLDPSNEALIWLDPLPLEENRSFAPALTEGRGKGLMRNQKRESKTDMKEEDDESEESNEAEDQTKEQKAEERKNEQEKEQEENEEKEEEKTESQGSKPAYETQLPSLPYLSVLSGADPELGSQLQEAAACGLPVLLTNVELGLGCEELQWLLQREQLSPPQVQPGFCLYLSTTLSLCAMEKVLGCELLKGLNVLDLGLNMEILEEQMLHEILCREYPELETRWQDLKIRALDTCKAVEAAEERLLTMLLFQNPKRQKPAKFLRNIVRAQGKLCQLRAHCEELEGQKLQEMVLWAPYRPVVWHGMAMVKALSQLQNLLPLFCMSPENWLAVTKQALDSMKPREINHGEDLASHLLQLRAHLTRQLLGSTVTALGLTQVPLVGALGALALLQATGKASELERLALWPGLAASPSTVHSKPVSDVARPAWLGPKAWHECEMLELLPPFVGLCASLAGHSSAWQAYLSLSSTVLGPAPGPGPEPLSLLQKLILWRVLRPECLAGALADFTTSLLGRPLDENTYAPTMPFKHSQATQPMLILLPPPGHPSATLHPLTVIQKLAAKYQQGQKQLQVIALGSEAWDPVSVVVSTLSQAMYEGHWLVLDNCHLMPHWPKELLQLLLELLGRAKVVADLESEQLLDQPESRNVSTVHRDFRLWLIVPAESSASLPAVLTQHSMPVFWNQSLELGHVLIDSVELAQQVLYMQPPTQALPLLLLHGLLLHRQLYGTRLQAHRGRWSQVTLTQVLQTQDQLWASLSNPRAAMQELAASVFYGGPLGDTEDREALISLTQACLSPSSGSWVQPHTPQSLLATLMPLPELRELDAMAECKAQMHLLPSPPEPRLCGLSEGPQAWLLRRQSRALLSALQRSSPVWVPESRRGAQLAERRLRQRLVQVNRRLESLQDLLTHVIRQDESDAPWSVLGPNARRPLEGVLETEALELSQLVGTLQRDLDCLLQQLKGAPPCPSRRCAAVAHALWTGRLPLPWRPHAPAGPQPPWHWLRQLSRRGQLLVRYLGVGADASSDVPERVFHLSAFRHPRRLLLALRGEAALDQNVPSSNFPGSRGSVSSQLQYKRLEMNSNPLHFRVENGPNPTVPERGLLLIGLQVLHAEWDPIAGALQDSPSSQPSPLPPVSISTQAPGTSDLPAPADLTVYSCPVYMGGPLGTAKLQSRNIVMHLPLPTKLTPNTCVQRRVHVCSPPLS
UniProt Q14147: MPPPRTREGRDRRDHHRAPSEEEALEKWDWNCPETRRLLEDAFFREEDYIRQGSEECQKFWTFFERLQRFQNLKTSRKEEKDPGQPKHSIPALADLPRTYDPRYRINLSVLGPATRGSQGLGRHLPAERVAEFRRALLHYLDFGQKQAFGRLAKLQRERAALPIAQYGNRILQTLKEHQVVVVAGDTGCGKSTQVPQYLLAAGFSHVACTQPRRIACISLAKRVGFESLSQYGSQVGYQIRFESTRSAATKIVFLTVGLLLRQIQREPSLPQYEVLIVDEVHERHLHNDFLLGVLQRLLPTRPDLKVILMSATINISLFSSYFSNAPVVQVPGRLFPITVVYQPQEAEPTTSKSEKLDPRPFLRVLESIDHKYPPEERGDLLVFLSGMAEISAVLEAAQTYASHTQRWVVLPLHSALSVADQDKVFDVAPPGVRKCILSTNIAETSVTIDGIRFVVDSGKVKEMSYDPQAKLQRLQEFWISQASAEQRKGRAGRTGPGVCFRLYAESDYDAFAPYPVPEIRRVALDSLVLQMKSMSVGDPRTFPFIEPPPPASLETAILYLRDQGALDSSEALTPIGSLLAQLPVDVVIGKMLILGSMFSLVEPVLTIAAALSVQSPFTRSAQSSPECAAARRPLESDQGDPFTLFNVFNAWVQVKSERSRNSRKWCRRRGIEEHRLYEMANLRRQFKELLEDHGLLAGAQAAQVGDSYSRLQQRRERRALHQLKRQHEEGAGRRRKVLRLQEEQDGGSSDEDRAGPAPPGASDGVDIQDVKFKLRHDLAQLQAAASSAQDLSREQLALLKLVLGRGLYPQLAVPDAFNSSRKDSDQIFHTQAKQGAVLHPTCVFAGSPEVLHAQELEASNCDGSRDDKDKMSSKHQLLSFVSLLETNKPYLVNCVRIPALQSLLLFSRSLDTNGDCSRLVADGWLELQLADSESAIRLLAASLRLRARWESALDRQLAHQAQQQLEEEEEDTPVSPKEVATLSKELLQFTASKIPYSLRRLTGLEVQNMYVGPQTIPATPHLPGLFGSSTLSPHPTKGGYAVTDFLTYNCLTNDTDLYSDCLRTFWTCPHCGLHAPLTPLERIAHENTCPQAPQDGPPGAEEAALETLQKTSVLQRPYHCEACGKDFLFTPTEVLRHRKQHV
UniProt Q6P3W2: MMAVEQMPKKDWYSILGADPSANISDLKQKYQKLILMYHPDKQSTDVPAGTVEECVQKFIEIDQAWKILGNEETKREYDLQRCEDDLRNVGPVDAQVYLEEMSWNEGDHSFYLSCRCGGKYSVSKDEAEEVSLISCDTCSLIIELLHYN
UniProt Q8NDZ4: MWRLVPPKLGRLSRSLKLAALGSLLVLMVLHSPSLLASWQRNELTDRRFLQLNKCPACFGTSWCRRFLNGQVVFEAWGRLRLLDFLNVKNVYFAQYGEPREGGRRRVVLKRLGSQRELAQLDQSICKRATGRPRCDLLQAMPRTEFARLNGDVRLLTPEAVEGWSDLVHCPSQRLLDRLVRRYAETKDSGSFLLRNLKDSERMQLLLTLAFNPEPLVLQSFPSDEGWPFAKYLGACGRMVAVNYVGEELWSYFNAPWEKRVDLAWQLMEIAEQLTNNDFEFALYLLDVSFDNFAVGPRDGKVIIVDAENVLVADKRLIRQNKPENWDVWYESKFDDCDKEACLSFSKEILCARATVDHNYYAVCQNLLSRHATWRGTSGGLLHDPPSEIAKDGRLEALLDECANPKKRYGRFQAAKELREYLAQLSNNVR

[1] = compound: C/C(=N\NC(=O)C1=CC(=CC=C1)S(=O)(=O)N2CCOCC2)/C3=C(C=CC(=C3)Cl)O
In short: as §1

[2] = compound: C1=CC(=CC=C1C2=NC3=C(N2)C=C(C=C3)C(=O)N)OC4=CC=C(C=C4)Cl
In short: as §1

[3] = compound: C1=CC2=C(C=CC(=C2)/C=C\3/C(=O)NC(=NCC4=CC=CS4)S3)N=C1
In short: as §1

[4] = compound: C1=CC=C(C=C1)C2=NC(=C(N2)C3=CC=NC=C3)C4=CC(=C(C=C4)Cl)O
In short: as §1

[5] = compound: C1=CC=C2C(=C1)C3=NNC4=CC=CC(=C43)C2=O
In short: as §1

[6] = compound: C1CCN(C1)C(=O)NC2=CC=CC(=C2)NC3=NC=C(C(=N3)NCCC4=CN=CN4)Br
In short: as §1

[7] = compound: C1CN(CCC1(CC2=CC=C(C=C2)Cl)N)C3=NC=NC4=C3C=CN4
In short: as §1

IRAK-1-4 Inhibitor I = compound: C1COCCN1CCN2C3=CC=CC=C3N=C2NC(=O)C4=CC(=CC=C4)[N+](=O)[O-] [IRAK-1-4 Inhibitor I]
In short: as §1

ralimetinib = compound: CC(C)(C)Cn1c(N)nc2ccc(-c3[nH]c(C(C)(C)C)nc3-c3ccc(F)cc3)nc21 [ralimetinib]
In short: as §1

[8] = compound: CC(C)(O)CC(=O)NCCn1ccc2ncnc(Nc3ccc(Oc4cccc(C(F)(F)F)c4)c(Cl)c3)c21
In short: as §1

[9] = compound: CC(C)C1=C2N=C(C=C(N2N=C1)NCC3=CC=CC=C3)NCCCCCCN
In short: as §1

[10] = compound: CC1=C(C(CC(=O)N1)C2=CC=C(C=C2)C(F)(F)F)C(=O)NC3=C(C=C4C(=C3)C=NN4)F
In short: as §1

[11] = compound: CC1=C(C2=C(C=C1)C(=O)C3=CC=CC=C3N2CCCN)C
In short: as §1

[12] = compound: CC1=C(C=C(C=C1)NC(=O)C2=CC(=CC=C2)C(C)(C)C#N)NC3=CC4=C(C=C3)N=CN(C4=O)C
In short: as §1

[13] = compound: CC1=C(C=C(C=C1)NC(=O)C2=CC(=CC=C2)N(C)C)NC(=O)C3=CC=C(C=C3)O
In short: as §1

[14] = compound: C1=CC2=NC=CN=C2C=C1/C=C/3\C(=O)NC(=O)S3
In short: as §1

ibrutinib = compound: C=CC(=O)N1CCC[C@@H](n2nc(-c3ccc(Oc4ccccc4)cc3)c3c(N)ncnc32)C1 [ibrutinib]
In short: as §1

[15] = compound: CC(=O)c1cnc2ccc(-c3cc(Cl)c(O)c(Cl)c3)nc2c1N[C@H]1CC[C@H](CN(C)C)CC1
In short: as §1

[16] = compound: CC1=CC=C(C=C1)SC2=C3C=C(SC3=CN=C2)C(=O)N
In short: as §1

Target | log2 fold change (erlotinib) | log2 fold change [1] | log2 fold change [2] | log2 fold change [3] | log2 fold change [4] | log2 fold change [5] | log2 fold change [6] | log2 fold change [7] | log2 fold change (IRAK-1-4 Inhibitor I) | log2 fold change (ralimetinib) | log2 fold change [8] | log2 fold change [9] | log2 fold change [10] | log2 fold change [11] | log2 fold change [12] | log2 fold change [13] | log2 fold change [14] | log2 fold change (ibrutinib) | log2 fold change [15] | log2 fold change [16]
DNA2 (UniProt P51530) | inactive: -0.019 | inactive: 0.071 | inactive: -0.054 | inactive: -0.163 | inactive: -0.032 | inactive: 0.044 | inactive: 0.027 | inactive: 0.077 | inactive: -0.033 | inactive: 0.016 | inactive: 0.029 | inactive: -0.06 | inactive: -0.007 | inactive: 0.002 | inactive: -0.02 | inactive: 0.001 | – | – | – | –
DNAJB2 (UniProt P25686) | inactive: 0.082 | inactive: 0.037 | inactive: -0.013 | inactive: 0.176 | – | inactive: -0.028 | inactive: 0.018 | inactive: -0.122 | – | – | – | inactive: -0.032 | inactive: 0.258 | inactive: 0.022 | inactive: 0.078 | – | inactive: 0.277 | inactive: 0.137 | – | –
DNAL1 (UniProt Q4LDG9) | inactive: -0.048 | inactive: 0.066 | inactive: 0.101 | inactive: 0.11 | inactive: 0.09 | inactive: -0.07 | inactive: 0.029 | inactive: -0.135 | inactive: 0.111 | inactive: 0.013 | inactive: -0.173 | inactive: -0.106 | – | inactive: -0.03 | inactive: 0.14 | inactive: 0.005 | inactive: -0.177 | inactive: 0.013 | – | –
DNTTIP1 (UniProt Q9H147) | inactive: -0.072 | inactive: -0.013 | inactive: 0.021 | inactive: -0.041 | – | inactive: 0.172 | inactive: 0.13 | inactive: 0.061 | – | – | – | inactive: -0.016 | – | inactive: 0.084 | – | – | – | – | inactive: -0.09 | inactive: -0.152
DNHD1 (UniProt Q96M86) | inactive: 0.262 | inactive: -0.095 | inactive: 0.006 | inactive: 0.024 | inactive: 0.178 | inactive: -0.211 | – | – | inactive: 0.183 | inactive: -0.188 | inactive: -0.072 | inactive: -0.056 | – | – | inactive: 0.073 | inactive: 0.062 | inactive: -0.06 | inactive: -0.001 | inactive: -0.068 | inactive: -0.234
DHX32 (UniProt Q7L7V1) | inactive: -0.083 | inactive: -0.091 | inactive: 0.098 | inactive: -0.052 | inactive: 0.013 | inactive: 0.038 | inactive: -0.145 | inactive: 0.044 | inactive: 0.036 | inactive: 0.096 | inactive: -0.144 | active: -0.387 | inactive: 0.016 | – | inactive: -0.023 | inactive: 0.017 | – | – | – | –
DNAJB1 (UniProt M0R128) | inactive: -0.072 | – | inactive: 0.111 | – | inactive: 0.125 | – | – | – | inactive: 0.098 | inactive: -0.227 | inactive: -0.25 | inactive: 0.149 | inactive: -0.127 | – | – | inactive: 0.115 | inactive: -0.052 | inactive: -0.053 | inactive: -0.104 | inactive: 0.018
DIAPH1 (UniProt H9KV28) | inactive: -0.1 | inactive: -0.013 | inactive: -0.053 | inactive: 0.005 | inactive: -0.164 | inactive: -0.024 | inactive: 0.031 | inactive: -0.037 | inactive: 0.034 | inactive: -0.022 | inactive: -0.106 | inactive: -0.083 | inactive: 0.032 | – | inactive: 0.004 | inactive: 0.009 | inactive: -0.04 | inactive: -0.063 | inactive: 0.024 | inactive: -0.03
DHX34 (UniProt Q14147) | inactive: 0.005 | inactive: -0.05 | inactive: 0.042 | inactive: 0.037 | inactive: 0.062 | inactive: -0.071 | inactive: 0.013 | inactive: 0.041 | inactive: 0.088 | inactive: -0.054 | inactive: -0.081 | inactive: 0.015 | inactive: 0.048 | inactive: 0.058 | inactive: 0.028 | inactive: 0.022 | inactive: 0.029 | inactive: 0.08 | – | –
DOT1L isoform 1 (UniProt Q8TEK3) | inactive: -0.183 | inactive: -0.196 | inactive: 0.002 | inactive: 0.079 | – | inactive: -0.004 | inactive: -0.277 | inactive: 0.036 | – | – | – | inactive: 0.005 | – | inactive: 0.27 | inactive: -0.334 | – | – | – | – | –
DGKH (UniProt Q86XP1) | inactive: -0.063 | inactive: -0.055 | inactive: 0.01 | inactive: -0.248 | inactive: -0.035 | inactive: -0.137 | inactive: -0.06 | inactive: -0.003 | inactive: 0.11 | inactive: -0.028 | inactive: -0.467 | inactive: 0.01 | inactive: 0.062 | inactive: 0.096 | inactive: -0.027 | inactive: -0.149 | inactive: 0.132 | inactive: 0.039 | – | –
DNAJC24 (UniProt Q6P3W2) | inactive: 0.034 | inactive: -0.069 | inactive: 0.021 | inactive: 0.011 | inactive: 0.016 | inactive: 0.081 | inactive: 0.01 | inactive: 0.01 | inactive: -0.055 | inactive: -0.052 | inactive: 0.113 | inactive: -0.067 | inactive: -0.048 | inactive: 0.064 | inactive: 0.031 | inactive: 0.047 | – | – | inactive: -0.12 | inactive: 0.064
DIPK2A (UniProt Q8NDZ4) | inactive: -0.091 | inactive: 0.03 | inactive: -0.209 | inactive: 0 | inactive: 0.059 | inactive: 0.194 | inactive: -0.26 | inactive: -0.287 | inactive: -0.035 | inactive: 0.182 | inactive: 0.055 | inactive: -0.071 | – | inactive: -0.009 | inactive: -0.002 | inactive: -0.027 | inactive: -0.161 | inactive: 0.061 | inactive: 0.035 | inactive: 0.069
DGKA (UniProt P23743) | – | inactive: -0.177 | – | inactive: 0.018 | inactive: 0.429 | inactive: -0.099 | inactive: 0.022 | inactive: 0.021 | inactive: -0.364 | inactive: -0.042 | inactive: 0.383 | – | inactive: 0.036 | inactive: -0.233 | – | inactive: -0.605 | inactive: 0.022 | inactive: 0.159 | inactive: 0.01 | inactive: 0.049
DOK2 (UniProt O60496) | inactive: 0.105 | – | inactive: -0.081 | – | inactive: 0.067 | – | – | – | inactive: 0.196 | inactive: 0.048 | inactive: -0.254 | inactive: 0.103 | – | – | – | inactive: 0.076 | – | – | inactive: 0.187 | inactive: -0.043

Random excerpt: 2 entries already listed, in no set order.
Target | log2 fold change (erlotinib) | log2 fold change [1] | log2 fold change [2] | log2 fold change [3] | log2 fold change [4] | log2 fold change [5] | log2 fold change [6] | log2 fold change [7] | log2 fold change (IRAK-1-4 Inhibitor I) | log2 fold change (ralimetinib) | log2 fold change [8] | log2 fold change [9] | log2 fold change [10] | log2 fold change [11] | log2 fold change [12] | log2 fold change [13] | log2 fold change [14] | log2 fold change (ibrutinib) | log2 fold change [15] | log2 fold change [16]
DIPK2A (UniProt Q8NDZ4) | inactive: -0.091 | inactive: 0.03 | inactive: -0.209 | inactive: 0 | inactive: 0.059 | inactive: 0.194 | inactive: -0.26 | inactive: -0.287 | inactive: -0.035 | inactive: 0.182 | inactive: 0.055 | inactive: -0.071 | – | inactive: -0.009 | inactive: -0.002 | inactive: -0.027 | inactive: -0.161 | inactive: 0.061 | inactive: 0.035 | inactive: 0.069
DNAJB1 (UniProt M0R128) | inactive: -0.072 | – | inactive: 0.111 | – | inactive: 0.125 | – | – | – | inactive: 0.098 | inactive: -0.227 | inactive: -0.25 | inactive: 0.149 | inactive: -0.127 | – | – | inactive: 0.115 | inactive: -0.052 | inactive: -0.053 | inactive: -0.104 | inactive: 0.018

Reference: the supplement of paper PMC10849652
